From paper PMC3176784
These are yes or no findings as the source states them, for the method shown. In cells and extracts the contact can be indirect. Binding calls can cover weak binding; strength is not graded here. For some of these results: Where a sequence is shown, tags or fusion partners need not be part of it.

Columns and labels:
Assay in all cases: pull-down; GST fusion proteins with portions of PLC-β3-CT mixed with precleared lysates of Ba/F3 cells (with or without IL-3), 2 h at 4°C; lysis buffer 20 mM Tris-HCl pH 8.0, 150 mM NaCl, 1 mM EDTA, 1% Nonidet P-40; six washes; immunoblot with anti-Stat5 or anti-SHP-1; only the target purified
[1] = molecular target: T1, GST fusion protein of PLC-β3 residues 983–1234 (mouse) (UniProt P51432)
T1 sequence: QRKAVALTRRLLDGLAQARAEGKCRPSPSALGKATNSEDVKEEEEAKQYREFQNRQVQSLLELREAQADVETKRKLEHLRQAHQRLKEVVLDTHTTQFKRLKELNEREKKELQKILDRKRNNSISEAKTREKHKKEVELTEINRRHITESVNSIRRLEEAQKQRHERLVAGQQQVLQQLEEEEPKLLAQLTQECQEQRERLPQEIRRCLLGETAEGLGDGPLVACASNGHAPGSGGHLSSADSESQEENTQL

[2] = molecular target: T2, PLC-β3 region c (positions 1032–1069) (mouse) (UniProt P51432)
T2 sequence: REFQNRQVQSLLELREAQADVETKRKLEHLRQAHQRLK

[3] = molecular target: T3, PLC-β3 region a (positions 917–943) (mouse) (UniProt P51432)
T3 sequence: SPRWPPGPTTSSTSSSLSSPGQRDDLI

[4] = molecular target: T4, PLC-β3 region b (positions 983–1000) (mouse) (UniProt P51432)
T4 sequence: QRKAVALTRRLLDGLAQA

binding [1]: binds | binding [2]: binds | binding [3]: binds | binding [4]: binds
Substance: Stat5 (mouse (endogenous in Ba/F3))
